Measurements as given in PubChem BioAssay (NCATS).
The list shows a part of the results. Further columns of the screen follow, without active or inactive calls. Compounds called inactive in the main read-out are mostly missing here. The note in brackets gives the kind of curve behind each potency; many fits are weak.

Experiment: S16 Schwann cell PMP22 intronic element beta-lactamase assay (AID 624044)
Conditions: S16 rat Schwann cells, PMP22 element beta-lactamase FRET, 24 h; measured here: 460 nm blue channel
In short: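 Beta-lactamase reporter under a PMP22 intronic regulatory element in stable S16 rat Schwann cells; 24 h compound exposure. 460 nm blue signal normalized between DMSO (0%) and potassium clavulanate, with 535 nm FRET tracking viability; curves classed by r2 and response.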
For `CCN1/C(=C/C=C/C=C/c2sc3ccccc3[n+]2CC)Sc2ccccc21`, the AC50 was 7.94 µM [falling, full curve]. For `C=C(CC[C@@H](C)[C@H]1CCC2[C@]1(C)CC[C@]13C[C@@]14CCC(OC(=O)/C=C/c1ccc(O)c(OC)c1)C(C)(C)[C@@H]4CC[C@@]23C)C(C)C` (stereo not given in full), the AC50 was 5.62 µM [falling, full curve, poor fit]. In the case of `CC(C)C[C@@H](NC(=O)[C@@H](Cc1ccccc1)NC(=O)c1cnccn1)B(O)O`, the AC50 is reported as 0.0199 µM [falling, full curve]. For `Cc1cccc(Nc2ccncc2S(=O)(=O)NC(=O)NC(C)C)c1`, the AC50 was 0.213 µM [falling, full curve, poor fit]. With `OC[C@H](S)CS` the AC50 was 22.4 µM [falling, partial curve, poor fit]. In the case of `CCOC(=O)c1c[nH]c2cc(OCC(C)C)c(OCC(C)C)cc2c1=O`, the AC50 is reported as 1.26 µM [falling, partial curve, poor fit]. For `O=C1C(=O)c2ncccc2-c2cccnc21`, the AC50 was 22.4 µM [rising, partial curve, poor fit]. In the case of `CCCC(=O)OC[C@@H](OC(=O)CCC)[C@@H](OC(=O)CCC)[C@H](Cn1c2nc(=O)[nH]c(=O)c-2nc2cc(C)c(C)cc21)OC(=O)CCC`, the AC50 is reported as 25.1 µM [falling, single point]. In the case of `O=C(O)CCC/C=C\C[C@@H]1[C@@H](/C=C/[C@@H](O)COc2cccc(Cl)c2)[C@H](O)C[C@@H]1O`, the AC50 is reported as 22.4 µM [falling, single point]. For `O=c1[nH]c(=O)c2[nH]c(=O)[nH]c2[nH]1`, the AC50 was 14.1 µM [falling, single point]. In the case of `CC1CC(O)CC(C)(C)C1` (stereo not given), the AC50 is reported as 1.58 µM [falling, full curve]. In the case of `CN=C(NC#N)Nc1ccc(C2=NNC(=O)CC2C)cc1` (stereo not given), the AC50 is reported as 19.9 µM [falling, single point]. For `CC(C)Cc1ccc([C@@H](C)C(=O)NS(C)(=O)=O)cc1`, the AC50 was 0.631 µM [falling, full curve, poor fit]. In the case of `Cc1cccn2c(=O)c(-c3nnn[nH]3)cnc12`, the AC50 is reported as 5.62 µM [falling, full curve, poor fit]. With `CC[C@H](C)[C@H]1O[C@]2(CC[C@@H]1C)C[C@@H]1C[C@@H](C/C=C(\C)[C@H](O[C@@H]3C[C@H](OC)[C@H](O[C@@H]4C[C@H](OC)[C@@H](O)[C@H](C)O4)[C@H](C)O3)[C@@H](C)/C=C/C=C3\CO[C@@H]4[C@H](O)C(C)=C[C@@H](C(=O)O1)[C@]34O)O2` the AC50 was 19.9 µM [falling, partial curve]. For `C/C1=C2/[N-]C(C(CC(N)=O)[C@@]2(C)CCC(=O)NCC(C)OP(=O)([O-])O[C@H]2[C@@H](O)[C@@H](n3cnc4cc(C)c(C)cc43)O[C@@H]2CO)[C@]2(C)N=C(/C(C)=C3N=C(/C=C4N=C1C(CCC(N)=O)C\4(C)C)[C@@H](CCC(N)=O)[C@]\3(C)CC(N)=O)[C@@H](CCC(N)=O)[C@]2(C)CC(N)=O.CC(=O)O.[Co]` (stereo not given in full), the AC50 was 2.51 µM [falling, full curve]. For `COc1cc(NCCCC(C)N)c2ncccc2c1` (stereo not given), the AC50 was 1.58 µM [falling, full curve, poor fit]. In the case of `Cc1cc(CC(C)CC(C)(C)C)n(O)c(=O)c1` (stereo not given), the AC50 is reported as 4.46 µM [falling, full curve]. For `CC(=O)Nc1ccc(S(=O)(=O)Nc2ccc([N+](=O)[O-])cc2)cc1`, the AC50 was 25.1 µM [falling, single point]. For `CCC(C)C(=O)OC1CCC=C2C=CC(C)C(CCC3CC(O)CC(=O)O3)[C@@H]21` (stereo not given in full), the AC50 was 0.562 µM [falling, full curve, poor fit]. With `NC(=O)C(c1ccccc1)(c1ccccc1)[C@@H]1CCN(CCc2ccc3c(c2)CCO3)C1` the AC50 was 2.82 µM [falling, full curve]. For `Cc1cn([C@H]2C[C@H](O)[C@@H](CO)O2)c(=O)[nH]c1=O`, the AC50 was 1.26 µM [falling, full curve, poor fit]. For `Nc1ncn(C2C[C@H](O)[C@@H](CO)O2)c(=O)n1` (stereo not given in full), the AC50 was 22.4 µM [falling, single point]. With `CC(C)CCC[C@@H](C)[C@H]1CC[C@H]2[C@@H]3CC[C@@H]4C[C@H](O)CC[C@]4(C)[C@H]3CC[C@]12C` the AC50 was 14.1 µM [falling, single point]. For `CC1CCCCN1CCCOC(=O)c1ccccc1` (stereo not given), the AC50 was 25.1 µM [rising, single point]. For `O=P(O)(O)CP(=O)(O)O`, the AC50 was 25.1 µM [falling, single point]. With `CC[C@@]1(O)C(=O)OCc2c1cc1n(c2=O)Cc2cc3c([N+](=O)[O-])cccc3nc2-1` the AC50 was 0.999 µM [falling, full curve]. With `Cc1cccc(C)c1NC(=O)C1CCCCN1C` (stereo not given) the AC50 was 14.1 µM [falling, single point]. With `CNCC(=O)NC(CCCN=C(N)N)C(=O)NC(C(=O)NC(Cc1ccc(O)cc1)C(=O)NC(C(=O)NC(Cc1cnc[nH]1)C(=O)N1CCCC1C(=O)NC(C)C(=O)O)C(C)C)C(C)C` (stereo not given) the AC50 was 7.94 µM [falling, single point]. In the case of `NCC[C@H](O)C(=O)N[C@@H]1C[C@H](N)[C@@H](O[C@H]2O[C@H](CN)CC[C@H]2N)[C@H](O)[C@H]1O[C@H]1O[C@H](CO)[C@@H](O)[C@H](N)[C@H]1O`, the AC50 is reported as 12.6 µM [rising, single point]. In the case of `CC(C)NC[C@H]1CCc2cc(CO)c([N+](=O)[O-])cc2N1`, the AC50 is reported as 10.7 µM [falling, single point]. For `Cc1[nH]cnc1CN1CCc2c(c3ccccc3n2C)C1=O`, the AC50 was 5.01 µM [falling, full curve, poor fit]. For `COc1nc(N)nc2c1ncn2[C@@H]1O[C@H](CO)[C@@H](O)[C@@H]1O`, the AC50 was 3.98 µM [falling, partial curve, poor fit]. For `Cc1ccccc1N1C(=O)c2cc(N)ccc2N/C1=C\F`, the AC50 was 19.9 µM [falling, single point]. In the case of `O=C(Nc1cccc(C(F)(F)F)c1)c1cc(Br)cc(Br)c1O`, the AC50 is reported as 8.91 µM [falling, partial curve, poor fit]. With `COc1ccc(CN(CCN(C)C)c2ncccn2)cc1` the AC50 was 25.1 µM [falling, single point]. With `CC1=CC(=C(c2ccc(N)cc2)c2ccc(N)cc2)C=CC1=N` the AC50 was 2.82 µM [falling, full curve]. For `CCCCC[C@H](O)/C=C/[C@@H]1[C@H]2C/C(=C/CCCC(=O)O)O[C@H]2C[C@H]1O`, the AC50 was 0.00562 µM [falling, full curve, poor fit]. For `O=C1OC(OC(=O)c2cccnc2Nc2cccc(C(F)(F)F)c2)c2ccccc21` (stereo not given), the AC50 was 0.0178 µM [falling, full curve, poor fit]. With `CC1CCC(C(C)C)C(=O)C1` (stereo not given) the AC50 was 25.1 µM [falling, single point].
